Data taken from PubChem BioAssay AID1487 (National Center for Advancing Translational Sciences (NCATS), 2009).
Where “and” joins values, the source holds several entries; their conditions need not be identical. Equal values may be shown once. The list shows a part of the results. Shown are side measurements of this screen, not its main read-out; they come without a call. Most of these compounds were active or inconclusive in the main read-out, so they are no random draw. Words in brackets tell the shape of the fitted curve; partial curves, single points and poor fits give uncertain potencies.

Test: qHTS Assay for Modulators of Lamin A Splicing
Details: HeLa LMNA splicing GFP/RFP minigene ratio, 48 h
Procedure, shortened: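 S3 HeLa cells stably expressing lamin A-EGFP splicing minigene plus DsRed2, 600 cells/well, 48 h compound exposure at 37C. Laser-scanning cytometry; analysed as GFP (500-530 nm)/RFP (575-640 nm) total intensity ratio; 0.5% DMSO vehicle.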

[1] = measured here: GFP splicing reporter channel
[2] = measured here: RFP viability control channel

Row | SMILES | AC50 [1] | AC50 [2]
1 | Cc1ccc(N(C(=O)CNC(=O)c2ccco2)C(C(=O)NC2CCCC2)c2cccnc2)cc1C (stereo unspecified) | 35.5 µM [rising, single point] | 
2 | Cc1ccc(-c2nc(CS(=O)CC(=O)N3CCN(c4ccc(Cl)cc4)CC3)c(C)o2)cc1 (stereo unspecified) | 6.31 µM [falling, single point] | 31.6 µM [rising, single point]
3 | CCC(=O)NC(Nc1sc2c(c1C(=O)OC)CCC2)C(Cl)(Cl)Cl (stereo unspecified) |  | 35.5 µM [rising, single point]
4 | O=C(Nc1ccnc(-c2cccnc2)n1)c1ccc(F)cc1 | 3.55 µM [falling, partial curve] | 3.55 µM [falling, single point]
5 | O=C(Nc1ccccc1Cl)N1CCN(c2ccc3nnc(-c4ccc(F)cc4)n3n2)CC1 | 15.8 µM [rising, partial curve, poor fit] | 11.2 µM [rising, partial curve]
6 | Cc1noc(C)c1S(=O)(=O)N1CCC(C(=O)Nc2ccc(OC(F)(F)F)cc2)CC1 | 17.8 µM [rising, single point] | 
7 | O=C(CNC(=O)c1ccccc1)N/N=C/c1ccc([N+](=O)[O-])o1 |  | 35.5 µM [rising, single point]
8 | Cc1cc(C)c(S(=O)(=O)NCC(c2cccs2)S(=O)(=O)c2ccccc2)c(C)c1 (stereo unspecified) |  | 35.5 µM [rising, single point]
9 | Cc1ccc(C(=O)NNC(=S)NC(=O)c2ccc(Cl)cc2)cc1 | 35.5 µM [rising, single point] | 
10 | CCOc1cc(CNCC(C)C)c(Cl)cc1OCC(=O)Nc1ccccc1 | 0.708 µM [falling, full curve, poor fit] | 
11 | CCOC(=O)c1c(O)c2c([nH]c1=O)CCCC2 | 3.16 µM [falling, single point] | 4.47 µM [falling, partial curve]
12 | Cc1ccc(NCc2nc3ccccc3n2CCOc2ccccc2)cc1 |  | 31.6 µM [rising, single point]
13 | Cc1cc(NC(=O)Nc2nc3c(s2)CCCCCC3)ccc1Br | 11.2 µM [falling, partial curve] | 12.6 µM [falling, partial curve]
14 | CCCOc1cccc(C(=O)Nc2cccc(NC(=O)c3ccco3)c2)c1 |  | 12.6 µM [rising, single point]
15 | COc1ccc(OC)c(NC(=O)c2cnc(Nc3ccccc3OC)c3ccccc23)c1 | 17.8 µM [rising, single point] | 17.8 µM [rising, partial curve]
16 | Cc1ccc(/C=C/C(=O)c2cc(Br)ccc2OC(=O)c2ccco2)cc1 |  | 3.55 µM [rising, single point]
17 | O=C(c1ccc(OCCN2CCCCC2)cc1)c1c(-c2ccc(O)cc2)sc2cc(O)ccc12 | 7.94 µM [falling, partial curve, poor fit] and 12.6 µM [falling, partial curve] | 355 nM [falling, full curve, poor fit] and 12.6 µM [falling, partial curve, poor fit]
18 | COc1cccc(-c2nccc(-n3ccnc3)n2)c1 |  | 11.2 µM [rising, single point]
19 | O=C1c2ccccc2-c2n[nH]c3cccc1c23 | 0.00447 µM [falling, full curve, poor fit] | 0.00501 µM [falling, full curve, poor fit]
20 | Cc1nc(-c2ccccc2)sc1CCNS(=O)(=O)c1ccc(Br)cc1 | 35.5 µM [falling, single point] | 31.6 µM [falling, partial curve, poor fit]
21 | Cc1ccc(C(=O)Nc2ccccc2N2CCN(C(=O)C(C)C)CC2)cc1C | 35.5 µM [rising, single point] | 31.6 µM [rising, single point]
22 | O=C(c1ccc(C#CC2(O)CCCCC2)cc1)N1CCN(Cc2ccccc2)CC1 |  | 17.8 µM [rising, single point]
23 | CCn1nc(C)c(CCN(C)C(=O)Nc2cc(Cl)ccc2C)c1C | 0.447 µM [rising, partial curve, poor fit] | 0.0447 µM [rising, full curve]
24 | CCc1ccccc1NC1=NCC(=O)N1C1CCCCC1 |  | 0.00447 µM [falling, full curve, poor fit]
25 | Nc1nn(S(=O)(=O)c2ccccc2)cc1-c1ccc([N+](=O)[O-])cc1 | 15.8 µM [rising, single point] | 17.8 µM [rising, single point]
26 | CN(C)c1nc2c(Br)c(Br)c(Br)c(Br)c2[nH]1 | 2.82 µM [falling, full curve] | 3.16 µM [falling, full curve]
27 | CCN(Cc1ccccc1)C(c1cc2cc(C)cc(C)c2[nH]c1=O)c1nnnn1CCOC (stereo unspecified) | 6.31 µM [rising, partial curve] | 

Structures listed so far that contain four or more nitrogen atoms (8):
Row | SMILES | AC50 [1] | AC50 [2]
1 | Cc1ccc(N(C(=O)CNC(=O)c2ccco2)C(C(=O)NC2CCCC2)c2cccnc2)cc1C (stereo unspecified) | 35.5 µM [rising, single point] | 
4 | O=C(Nc1ccnc(-c2cccnc2)n1)c1ccc(F)cc1 | 3.55 µM [falling, partial curve] | 3.55 µM [falling, single point]
5 | O=C(Nc1ccccc1Cl)N1CCN(c2ccc3nnc(-c4ccc(F)cc4)n3n2)CC1 | 15.8 µM [rising, partial curve, poor fit] | 11.2 µM [rising, partial curve]
7 | O=C(CNC(=O)c1ccccc1)N/N=C/c1ccc([N+](=O)[O-])o1 |  | 35.5 µM [rising, single point]
18 | COc1cccc(-c2nccc(-n3ccnc3)n2)c1 |  | 11.2 µM [rising, single point]
23 | CCn1nc(C)c(CCN(C)C(=O)Nc2cc(Cl)ccc2C)c1C | 0.447 µM [rising, partial curve, poor fit] | 0.0447 µM [rising, full curve]
25 | Nc1nn(S(=O)(=O)c2ccccc2)cc1-c1ccc([N+](=O)[O-])cc1 | 15.8 µM [rising, single point] | 17.8 µM [rising, single point]
27 | CCN(Cc1ccccc1)C(c1cc2cc(C)cc(C)c2[nH]c1=O)c1nnnn1CCOC (stereo unspecified) | 6.31 µM [rising, partial curve] | 

Two entries picked at random from those above, as already listed:
Row | SMILES | AC50 [1] | AC50 [2]
14 | CCCOc1cccc(C(=O)Nc2cccc(NC(=O)c3ccco3)c2)c1 |  | 12.6 µM [rising, single point]
6 | Cc1noc(C)c1S(=O)(=O)N1CCC(C(=O)Nc2ccc(OC(F)(F)F)cc2)CC1 | 17.8 µM [rising, single point] | 

Going on with the list.

Row | SMILES | AC50 [1] | AC50 [2]
28 | Cc1sc(=NC(=O)c2ccco2)n(C)c1-c1ccc(Cl)cc1 | 12.6 µM [rising, partial curve, poor fit] | 28.2 µM [rising, partial curve, poor fit]
29 | O=C(c1cn(-c2ccccc2)nc1-c1cc2ccccc2oc1=O)N1CCOCC1 |  | 2 µM [rising, single point]
30 | O=C(NC(Cc1c[nH]c2ccccc12)C(=O)N/N=C/c1cccc2ccccc12)c1cccs1 (stereo unspecified) |  | 1.12 µM [rising, full curve, poor fit]
31 | CCCn1nc(Oc2nc(NCC)nc(NCC)n2)ccc1=O | 10 µM [falling, partial curve, poor fit] | 
32 | COc1ccc(OC)c(CCNC(=O)Cn2ncc3c([nH]c4ccccc43)c2=O)c1 | 0.0355 µM [rising, full curve, poor fit] | 
33 | Cc1cc(NC(=O)NC2(C(F)(F)F)Oc3ccc(Cl)cc3O2)no1 (stereo unspecified) |  | 12.6 µM [rising, partial curve]
34 | NNc1ncnc2c1cnn2-c1ccccc1 |  | 35.5 µM [rising, single point]
35 | Cc1cccc(C)c1OCC(O)Cn1c2ccccc2c2ccccc21 (stereo unspecified) | 35.5 µM [rising, single point] | 35.5 µM [rising, single point]
36 | O=C(N/C(=C/C=C\c1ccccc1)C(=O)N1CCOCC1)c1ccc(Br)cc1 | 11.2 µM [falling, partial curve] | 14.1 µM [falling, partial curve, poor fit]
37 | O=C(COc1ccc(Cl)cc1)NCc1nnc(SCC(=O)NC2CCCCC2)o1 |  | 12.6 µM [rising, single point]
38 | O=C(N/N=C/c1ccc(F)cc1)c1sccc1OCc1ccc(F)cc1 | 35.5 µM [rising, single point] | 
39 | CC(C)c1ccc(OCC(=O)Nc2cccc3c2CCCC3)cc1 | 20 µM [rising, single point] | 25.1 µM [rising, partial curve]
40 | CCCn1c(C)nc2c(c1=O)c1nc3ccccc3nc1n2CCC1=CCCCC1 | 35.5 µM [falling, single point] | 35.5 µM [falling, single point]
41 | COc1cccc2c(SCC(=O)N/N=C/c3ccccc3)cc(C)nc12 |  | 12.6 µM [rising, partial curve]
42 | CCc1ccc(OCC(=O)NC(NC(=S)Nc2ccc(Cl)cc2)C(Cl)(Cl)Cl)cc1 (stereo unspecified) |  | 12.6 µM [rising, partial curve, poor fit]
43 | COc1ccc(-c2nc3cnc(OC)nc3n(-c3ccc(OC)cc3)c2=O)cc1 | 12.6 µM [falling, partial curve] | 20 µM [falling, single point]
44 | Cn1c(SCc2cccc(C(F)(F)F)c2)nnc1-c1ccco1 | 10 µM [rising, partial curve, poor fit] | 
45 | COc1cc(C(c2sc3nc(C)nn3c2O)N2CCN(c3ccccc3)CC2)cc(OC)c1OC (stereo unspecified) |  | 5.01 µM [rising, full curve, poor fit]
46 | Cc1ccccc1N=C/C=C1\N(C)c2ccccc2C1(C)C |  | 12.6 µM [rising, single point]
47 | CC(=O)n1c(Cl)c(NC(=O)CCl)c2ccccc21 |  | 22.4 µM [falling, partial curve]
48 | CCN(CC)S(=O)(=O)c1ccc(C(=O)OCC(=O)NCCN2C(=O)CSC2=O)cc1 | 0.0126 µM [falling, full curve, poor fit] | 0.01 µM [falling, full curve, poor fit]
49 | COC(=O)c1ccccc1NC(=O)c1cc(C2CC2)on1 |  | 14.1 µM [rising, partial curve]
50 | CCSc1nnc(NC(=O)CSc2nc(C)cc(C)n2)s1 |  | 31.6 µM [rising, single point]
51 | COc1ccc(NC(=O)N2CCCCC2c2cccnc2)cc1 (stereo unspecified) | 2 µM [rising, partial curve] | 1.78 µM [rising, partial curve]
52 | CC(CN1c2ccccc2Sc2ccccc21)N(C)C (stereo unspecified) | 0.0282 µM [falling, partial curve, poor fit] | 56.2 nM [falling, partial curve, poor fit] and 5.62 µM [falling, single point]
53 | O=C1C2CCCN2C(=O)N1CCN1CCN(CCO)CC1 (stereo unspecified) |  | 10 µM [falling, partial curve, poor fit]
54 | Cc1nn(CC(=O)NCC2CCCO2)c(C)c1[N+](=O)[O-] (stereo unspecified) | 0.0562 µM [falling, full curve, poor fit] | 
